Measurements reported in PubChem BioAssay AID504744 (Drosophila RNAi Screening Center, 2011)
Aim: 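Identify dsRNAs that increase or decrease phospho-dAkt after insulin treatment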 (primary screen). Cell system: Drosophila Kc167 cells. Reagent: long dsRNA against Drosophila genes, 250 ng dsRNA per well of a 384-well plate. Time to read-out: 3 days of knock-down, then overnight serum-free starvation before stimulation. Treatment: bovine insulin at 387 nM for 10 minutes after 12 h without serum. Detection: 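In-cell antibody fluorescence for phospho-dAkt in each well over DNA-dye signal, with log2 residuals expressed as z-scores adjusted for cell count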. Active means: 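Hit in the insulin screen when the two-replicate mean z-score is more extreme than plus or minus 2.5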.
In all, the deposit lists about 23,000 reagents; this is an unselected part of those that have a named target and a result. Of all reagents, 98 (0.43%) got an active call. 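Only hit calls are given; the phospho-dAkt signals, z-scores and hit direction were not deposited.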 Names joined by + are all predicted targets of the reagent.

Gene	amplicon	Outcome
CG33964 + CG13175	DRSC06300	inactive
CG33964 + CG13175	DRSC06301	inactive
CG33964 + CG13175	DRSC07184	inactive
mtDNA-helicase	DRSC02912	inactive
ppk13	DRSC02382	inactive
Cpr64Aa	DRSC08460	inactive
Nup214	DRSC04421	inactive
Psc	DRSC07518	inactive
l(1)10Bb	DRSC20346	active
stops	DRSC15095	inactive
stops	DRSC15096	inactive
stops	DRSC15097	inactive
wol	DRSC03077	inactive
Liprin-beta	DRSC09795	inactive
PGS1	DRSC16304	inactive
Ugt37C2	DRSC02247	inactive
Rnf146	DRSC11045	inactive
Idua	DRSC02941	inactive
Gpa2	DRSC21071	inactive
CG2931	DRSC12324	inactive
srl	DRSC12340	inactive
mfr	DRSC10543	inactive
CG5708	DRSC02881	inactive
robls54B	DRSC05660	inactive
CG2256	DRSC18220	inactive
CG9592	DRSC11078	inactive
lncRNA:CR32658	DRSC19402	inactive
CG5890	DRSC15909	inactive
CG18599	DRSC15357	inactive
CG18599	DRSC22585	inactive
CG16863	DRSC01892	inactive
Ir56c	DRSC06544	inactive
Act5C	DRSC17723	inactive
Rab18	DRSC18702	inactive
simj	DRSC10942	inactive
Obp50e	DRSC06434	inactive
CG34040	DRSC03902	inactive
slow	DRSC08589	inactive
slow	DRSC08590	inactive
His3:CG33818 + His3:CG33857 + His3:CG33806 + 20 more	DRSC21267	inactive
halo	DRSC00705	inactive
glob1	DRSC16959	inactive
lace	DRSC03564	inactive
GlcAT-S	DRSC02731	inactive
Srrm1	DRSC09835	inactive
TpnC41C	DRSC04916	inactive
Slh	DRSC00789	inactive
CG31674	DRSC03208	inactive
Alg11	DRSC11647	inactive
Prosalpha4	DRSC20271	inactive
Eip78C	DRSC11864	inactive
Gr59d	DRSC22553	inactive
Spt3	DRSC15465	inactive
SsRbeta	DRSC11290	inactive
Cyp313b1	DRSC16629	inactive
CG3732	DRSC04410	inactive
CG18131	DRSC00517	inactive
CG18787 + CG18789	DRSC02698	inactive
toy	DRSC17222	inactive
twit	DRSC03210	inactive
spd-2	DRSC09682	inactive
Ubi-p63E	DRSC22016	inactive
CG3108	DRSC18280	inactive
CG13148	DRSC06275	inactive

Hits, of those listed so far:
Gene	amplicon	Outcome
l(1)10Bb	DRSC20346	active
